PubChem BioAssay AID1259331 | Drosophila RNAi Screening Center, 2017
In all, the deposit lists about 3,100 reagents; below is a random part of them. In the full data, 126 (4.1%) are marked active. 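Calls are per reagent; zinc was so toxic that few knock-downs lowered ATP further, so most hits raise ATP.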 The raw values are shown without normalisation. Entries without a mark were called inactive. The numbers tell different reagents against one gene apart. Names joined by + are all predicted targets of the reagent. Not given: the amount of reagent.

- Purpose: 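Knock-downs that alter ATP level after a high zinc chloride dose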 (primary screen)
- Cell system: Drosophila S2R+ cells
- Knock-down reagent: long dsRNA against Drosophila genes
- Timing: 5 days (4 days knock-down, then 1 day zinc)
- Conditions: zinc chloride at 15 mM final level for 1 day
- Measurement: 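Total cellular ATP measured by luciferase luminescence as a viability proxy, turned into Z scores from three plate copies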
- Reading the numbers: mean Z score: higher = more ATP than other wells, better survival under zinc; ATP luminescence: higher = more ATP, more viable cells
- Rule for the call: 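a reagent is called a hit when its Z score is above 1.5 or below -1.5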
- Meaning of the calls: active = hit, ATP up or down; inactive = not a hit

Gene | reagent | mean Z score | ATP luminescence, replicate 1 | ATP luminescence, replicate 2
galene | 1 | -0.0901 | 67372 | 75467
galene | 2 | 0.0661 | 43777 | 44891
Ctns | 1 | 6.2 (active) | 91059 | 1.38e5
Ctns | 2 | 8.4 (active) | 1.88e5 | 1.87e5
CG6749 | 1 | -0.228 | 74421 | 56139
CG6749 | 2 | 0.224 | 58883 | 49057
NijA | 1 | -0.305 | 72140 | 53636
tor | 1 | 0.088 | 70716 | 76102
tor | 2 | 0.0159 | 45971 | 51561
tor | 3 | -0.198 | 47137 | 44132
OstDelta | 1 | -0.401 | 26954 | 28999
OstDelta | 2 | -0.829 | 42816 | 55615
Tsp29Fb | 1 | 0.864 | 64954 | 49983
Tsp29Fb | 2 | 0.0682 | 52607 | 60769
NaPi-T | 1 | -0.0575 | 65382 | 72637
NaPi-T | 2 | -0.755 | 43519 | 54299
CG13160 | 1 | 0.132 | 83391 | 76822
Alg9 | 1 | -0.399 | 42730 | 40965
Alg9 | 2 | 0.12 | 63547 | 46743
Ent3 | 1 | -0.321 | 26256 | 32427
Ent3 | 2 | -0.0436 | 42559 | 51580
pasi2 | 1 | -0.342 | 41239 | 55728
pasi2 | 2 | 1.54 (active) | 76719 | 84598
mthl1 | 1 | 0.164 | 45491 | 44874
mthl1 | 2 | 1.37 | 77199 | 81076
mth | 1 | -0.513 | 27578 | 27370
mth | 2 | -0.0235 | 51869 | 44668
Gr39a | 1 | -0.897 | 31330 | 34279
Gr39a | 2 | -0.229 | 38393 | 41925
Gr39a | 3 | -0.195 | 59980 | 51338
CG7573 | 1 | 0.141 | 78623 | 60460
Grl65a | 1 | -0.0513 | 41822 | 45885
Grl65a | 2 | -0.193 | 49263 | 51595
Inx7 + cm | 1 | -0.443 | 39833 | 42730
Sb | 1 | 0.315 | 34019 | 66095
Sb | 2 | 0.187 | 63462 | 65091
Ir84a | 1 | -0.365 | 67758 | 56499
Ir84a | 2 | -0.244 | 63290 | 58557
ogre | 1 | -0.263 | 44236 | 43897
ogre | 2 | 2.07 (active) | 83563 | 90596
Eglp2 | 1 | -0.622 | 25931 | 25022
Eglp2 | 2 | -0.219 | 60725 | 55598
Tsp33B | 1 | -0.511 | 41309 | 37245
Tsp33B | 2 | -0.888 | 53361 | 41933
CG2187 | 1 | 0.538 | 75210 | 74729
CG2187 | 2 | 0.00862 | 61747 | 61301
CG7627 | 1 | -1.99 (active) | 27490 | 28690
Trc8 | 1 | -0.341 | 41206 | 43639
Trc8 | 2 | -0.366 | 55933 | 55563
CG14606 | 1 | -0.54 | 59860 | 51770
Cox10 | 1 | -0.177 | 53053 | 54424
Cox10 | 2 | 0.214 | 54339 | 52675
Vang | 1 | 0.0991 | 1.08e5 | 72911
klar | 1 | -0.559 | 50052 | 50841
Tehao | 1 | -0.335 | 47686 | 44445
Tehao | 2 | -0.101 | 50309 | 59569
CG11367 | 1 | 0.471 | 61009 | 63770
Slc25A46a | 1 | 0.137 | 46606 | 48629
Slc25A46a | 2 | 0.123 | 53841 | 62319
